Results taken from article PMC6319010.
These are yes or no findings as the source states them, for the method shown. Binding seen in cells or lysates may run through a third protein. Here binding means that the protein was enriched with, or labelled near, the bait; the list need not be complete. Sequences can lack the tags named with a protein.

Protein sequences, listed by entry. Tags and fused reporters are not part of them.
UniProt P62258: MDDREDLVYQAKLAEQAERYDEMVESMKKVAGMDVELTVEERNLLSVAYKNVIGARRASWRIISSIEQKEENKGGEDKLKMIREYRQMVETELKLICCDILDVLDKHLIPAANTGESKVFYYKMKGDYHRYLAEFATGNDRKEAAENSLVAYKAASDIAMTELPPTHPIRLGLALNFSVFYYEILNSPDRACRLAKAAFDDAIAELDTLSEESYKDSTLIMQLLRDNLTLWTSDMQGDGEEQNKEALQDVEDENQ
UniProt P31946: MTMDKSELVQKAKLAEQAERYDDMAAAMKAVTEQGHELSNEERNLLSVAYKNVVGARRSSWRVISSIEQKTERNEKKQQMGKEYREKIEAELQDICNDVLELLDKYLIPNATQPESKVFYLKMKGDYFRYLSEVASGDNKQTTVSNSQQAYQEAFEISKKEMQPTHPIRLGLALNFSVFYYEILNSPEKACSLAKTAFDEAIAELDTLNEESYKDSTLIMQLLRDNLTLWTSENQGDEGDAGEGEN
UniProt P63104: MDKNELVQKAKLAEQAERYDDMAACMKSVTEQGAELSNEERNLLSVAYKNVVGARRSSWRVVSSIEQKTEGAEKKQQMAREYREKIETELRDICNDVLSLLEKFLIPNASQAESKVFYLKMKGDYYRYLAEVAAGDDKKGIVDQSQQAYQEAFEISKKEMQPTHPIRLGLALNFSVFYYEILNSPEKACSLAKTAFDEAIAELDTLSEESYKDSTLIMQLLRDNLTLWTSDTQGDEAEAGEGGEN

T1: FLAG-tagged full-length heme oxygenase-1 (HO-1) (human) (UniProt P09601)
T1 sequence: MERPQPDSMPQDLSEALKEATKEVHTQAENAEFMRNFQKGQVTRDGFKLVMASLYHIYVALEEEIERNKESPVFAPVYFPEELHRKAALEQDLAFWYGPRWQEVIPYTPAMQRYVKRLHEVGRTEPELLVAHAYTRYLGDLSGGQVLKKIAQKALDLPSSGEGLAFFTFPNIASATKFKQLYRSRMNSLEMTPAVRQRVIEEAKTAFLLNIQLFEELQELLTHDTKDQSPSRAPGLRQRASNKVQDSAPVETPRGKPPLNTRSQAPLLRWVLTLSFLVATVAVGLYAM

B1: 14–3-3 protein gamma isoform (endogenous) (protein, UniProt P61981 1-247)
chain: MVDREQLVQKARLAEQAERYDDMAAAMKNVTELNEPLSNEERNLLSVAYKNVVGARRSSWRVISSIEQKTSADGNEKKIEMVRAYREKIEKELEAVCQDVLSLLDNYLIKNCSETQYESKVFYLKMKGDYYRYLAEVATGEKRATVVESSEKAYSEAHEISKEHMQPTHPIRLGLALNYSVFYYEIQNAPEQACHLAKTAFDDAIAELDTLNEDSYKDSTLIMQLLRDNLTLWTSDQQDDDGGEGNN

What follows are molecules tested against T1, FLAG-tagged full-length heme oxygenase-1 (HO-1) (human) (assay: affinity purification with mass spectrometry; lysate of cells transfected with FLAG-HO-1 or FLAG vector on FLAG affinity gel, 4 °C 4 h; 50 mM Tris-HCl pH 7.4, 100 mM NaCl, 0.5% NP-40, 1 mM EDTA; bands of 15-40 kDa cut out, LC-MS/MS).

binding | Molecule
binds | 14–3-3 protein epsilon isoform (endogenous) (from UniProt P62258 1-255)
binds | 14–3-3 protein beta/alpha isoform (endogenous) (from UniProt P31946 1-246)
binds | 14–3-3ζ (endogenous) (from UniProt P63104 1-245)
binds | B1
